Results as given in patent US20200079855A1 (Pfizer, published 2020).
Where a chain is given by its changes, count along the chain named. Names and notes keep the numbering of the source. No constants are given. Whether binding was seen depends on the method and setting. Some entries that bind do so weakly or less than the wild type. Each block holds one binder with its values, some of them ahead of it.

The chains behind the UniProt entries cited, without tags or fusion partners. Where a name states a change or a piece, a line headed by the entry shows the natural chain unless it says otherwise.
UniProt P43406: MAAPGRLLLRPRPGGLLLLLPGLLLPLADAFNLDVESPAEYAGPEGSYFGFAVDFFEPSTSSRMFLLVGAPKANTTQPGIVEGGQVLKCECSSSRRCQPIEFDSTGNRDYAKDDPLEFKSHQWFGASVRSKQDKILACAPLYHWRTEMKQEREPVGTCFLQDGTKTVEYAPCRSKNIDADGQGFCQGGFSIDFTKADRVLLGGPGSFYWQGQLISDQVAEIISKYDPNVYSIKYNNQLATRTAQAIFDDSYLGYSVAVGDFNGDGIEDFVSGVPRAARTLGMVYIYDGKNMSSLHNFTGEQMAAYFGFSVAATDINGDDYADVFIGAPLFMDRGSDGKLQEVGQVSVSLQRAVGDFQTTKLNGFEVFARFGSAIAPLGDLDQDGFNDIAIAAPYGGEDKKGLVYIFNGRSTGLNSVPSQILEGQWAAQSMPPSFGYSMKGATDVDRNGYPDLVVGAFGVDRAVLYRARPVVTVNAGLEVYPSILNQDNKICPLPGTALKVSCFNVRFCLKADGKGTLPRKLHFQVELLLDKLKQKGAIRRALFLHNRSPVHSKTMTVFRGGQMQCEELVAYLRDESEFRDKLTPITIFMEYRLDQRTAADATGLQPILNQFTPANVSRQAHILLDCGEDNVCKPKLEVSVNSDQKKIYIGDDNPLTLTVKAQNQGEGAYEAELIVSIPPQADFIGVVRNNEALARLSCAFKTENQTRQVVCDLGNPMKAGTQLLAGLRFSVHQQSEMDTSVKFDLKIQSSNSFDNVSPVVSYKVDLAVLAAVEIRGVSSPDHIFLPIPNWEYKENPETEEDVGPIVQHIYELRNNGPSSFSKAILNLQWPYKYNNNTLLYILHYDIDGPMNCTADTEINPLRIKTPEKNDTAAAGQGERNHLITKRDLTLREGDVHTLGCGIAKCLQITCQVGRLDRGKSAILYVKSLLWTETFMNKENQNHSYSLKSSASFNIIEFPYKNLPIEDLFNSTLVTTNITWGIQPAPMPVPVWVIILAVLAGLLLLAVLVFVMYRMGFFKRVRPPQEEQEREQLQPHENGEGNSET
UniProt Q0VBD0: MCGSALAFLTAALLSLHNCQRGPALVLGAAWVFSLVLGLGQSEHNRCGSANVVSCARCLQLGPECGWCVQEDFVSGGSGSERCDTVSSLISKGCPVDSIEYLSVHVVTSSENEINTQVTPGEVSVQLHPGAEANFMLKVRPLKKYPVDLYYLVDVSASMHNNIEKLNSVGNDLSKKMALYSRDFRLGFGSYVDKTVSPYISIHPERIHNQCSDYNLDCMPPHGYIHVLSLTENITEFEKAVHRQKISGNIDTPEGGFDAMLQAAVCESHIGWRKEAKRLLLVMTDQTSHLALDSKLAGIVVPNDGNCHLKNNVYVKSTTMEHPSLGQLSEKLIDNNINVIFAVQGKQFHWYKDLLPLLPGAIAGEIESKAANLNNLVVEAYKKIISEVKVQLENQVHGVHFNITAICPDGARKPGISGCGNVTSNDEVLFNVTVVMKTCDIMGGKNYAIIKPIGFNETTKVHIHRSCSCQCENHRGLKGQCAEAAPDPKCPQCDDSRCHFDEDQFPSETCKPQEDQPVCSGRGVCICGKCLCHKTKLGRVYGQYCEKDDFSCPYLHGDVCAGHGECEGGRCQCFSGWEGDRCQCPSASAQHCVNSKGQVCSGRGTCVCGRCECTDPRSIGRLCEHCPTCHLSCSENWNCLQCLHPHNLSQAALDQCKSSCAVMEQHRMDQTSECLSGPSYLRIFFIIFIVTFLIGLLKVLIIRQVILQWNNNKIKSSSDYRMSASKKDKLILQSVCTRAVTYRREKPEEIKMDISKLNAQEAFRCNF

How the values were obtained:
[1] = biological target: mouse αvβ8 integrin on CCK168 cells (mouse) (UniProt P43406+Q0VBD0); assay: flow cytometry of the CCK168 cell line, ADWA-11 against isotype staining
[2] = biological target: mouse αvβ8 integrin on EMT6 cells (mouse) (UniProt P43406+Q0VBD0); assay: flow cytometry of the EMT6 cell line, ADWA-11 against isotype staining
[3] = biological target: T1, recombinant mouse αvβ8 integrin (mouse, UniProt P43406 31-988; Q0VBD0 22-681, limits assumed); assay: SPR (Biacore), Fab
T1 construct: Recombinant protein immobilised on the Biacore chip

[4] = biological target: T2, mouse αvβ8 integrin on C8-S cells (mouse, UniProt P43406 31-1044; Q0VBD0 22-767); assay: flow cytometry on live cells
[5] = biological target: T2, mouse αvβ8 integrin on C8-S cells; assay: flow cytometry on live C8-S cells

binding [1]: binds | binding [2]: binds
B1: Mouse hybridoma antibody ADWA-11 (antibody, V domains shown)
VH: EVQLQQSGAELVRPGAFVKLSCKASGFNIKDYYMNWVLQRPEQGLEWIGWIDPDNGNTIYDPKFQGKASITADTSSNTAYLQLSSLTSEDTAVYYCARRLLMDYWGQGTSVTVSS
VL: DIVMTQAAPSVPVTPGESVSISCRSTKSLLHFNGNTYLFWFLQRPGQSPQRLIYYMSNLASGVPDRFSGRGSGTDFTLRISRVEAEDVGVYYCMQSLEYPFTFGTGTKLEIK
notes: Whole native murine IgG from the hybridoma; also called mADWA11; mADWA-11

binding [3]: binds
B2: Mouse hybridoma ADWA-11 Fab (Fab, V domains shown)
VH: B1 VH
VL: B1 VL
notes: Fab; also called mFab; Ms ADWA11 Fab

binding [4]: binds
B3: ADWA11 VH05-2/VK01(2.1) antibody (antibody, V domains shown)
VH: EVQLVESGGGLVQPGGSLRLSCAASGFNIKDYYMNWVRQAPGKGLEWVGWIDPDQGNTIYEPKFQGRFTISADTSKNSAYLQMNSLRAEDTAVYYCARRLLMDYWGQGTLVTVSS
VL: DIQMTQSPSSLSASVGDRVTITCRSTKSLSHFNGNTYLFWYQQKPGKAPKRLIYYMSNLASGVPSRFSGSGSGTDFTLTISSLQPEDFATYYCQQSLEYPFTFGGGTKVEIK
notes: also called ADWA11 2.1

binding [3]: binds
B4: ADWA11 2.4 Fab (Fab, V domains shown)
VH: B3 VH
VL: B3 VL with N58S
notes: Fab; also called ADWA11 5-2 2.4; ADWA11_5-2 2.4 Fab

binding [5]: binds | binding [4]: binds
B5: ADWA11 2.4 (IgG) (antibody, V domains shown)
VH: B3 VH
VL: DIQMTQSPSSLSASVGDRVTITCRSTKSLSHFNGNTYLFWYQQKPGKAPKRLIYYMSSLASGVPSRFSGSGSGTDFTLTISSLQPEDFATYYCQQSLEYPFTFGGGTKVEIKR
notes: Human IgG1 effectorless (L234A, L235A, G237A), kappa; also called ADWA11 VH05-2/VK01(2.4); ADWA11_VH05-2_VK01(2.4)
